The source of these data is PubChem BioAssay AID2685 (National Center for Advancing Translational Sciences (NCATS), 2010).

The list shows a part of the results. Shown are side measurements of this screen, not its main read-out; they come without a call. Compounds called inactive in the main read-out are mostly missing here. The note in brackets gives the kind of curve behind each potency; many fits are weak.

This test is described as follows: qHTS Assay for Lipid Storage Modulators in Drosophila S3 Cells.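 As to cell number change: cells counted by Cell Tracker Red CMTPX staining in the red channel.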 The conditions noted are these: BODIPY lipid droplet fluorescence, 18-24 h; for cell number change: measured here: cell count max response, cells fed with added oleic acid. A digest of the protocol: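 Laser-scanning cytometry quantifies lipid droplet accumulation (500–530 nm total intensity; droplet/cell object ratio) in oleic acid-fed (400 uM added) Drosophila S3 cells treated with a concentration series. 20 uM Triacsin C defined 100% inhibition.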
In general terms: Quantitative high-throughput screening tests each substance at several concentrations.

The mark [1] stands for this setting: measured here: lipid fluorescence (Fed channel) AC50, cells fed with added oleic acid.
Setting [2] is: measured here: cell number channel AC50, cells fed with added oleic acid.

Turning to `CC(=O)N1CCN(c2ccc(NC(=O)c3ccc4ccccc4c3)cc2)CC1`, the cell number change was found to be 23.1%. Under setting [1], the AC50 (usually the concentration giving half of the maximal activity seen) is 1.84 µM [falling, full curve].
Turning to `Cc1ccc(C)n1-c1ccc(C(=O)NN=C2CCCC2)cc1`, the AC50 under setting [1] was 0.116 µM [falling, single point].
Turning to `c1ccc(CN=C2NN=C(c3cc4ccccc4o3)CS2)cc1`, the cell number change is -3.91%. Further, the AC50 under setting [1] was 1.3 µM [rising, partial curve].
With `Cc1nc(-c2ccc(Cl)cc2)sc1C1(C)CC(c2ccc(F)cc2)=NO1` (stereo not drawn), the cell number change came out at 21.6%. Besides, the AC50 under setting [1] is 29.1 µM [rising, single point].
For `CC(C)(C)c1ccc(Cn2nnc3c(=O)[nH]c(C4CCN(C(=O)Cc5cccs5)CC4)nc32)cc1`, the cell number change is -53.7%. For the same compound, the half-maximal activity concentration (AC50) under setting [2] was 32.6 µM [falling, single point]. Under setting [1], the concentration at half-maximal activity (AC50) was 32.6 µM [falling, single point].
For the compound `CC(C)OC(=O)CCC/C=C\C[C@@H]1[C@@H](CC[C@@H](O)CCc2ccccc2)[C@H](O)C[C@@H]1O`, the cell number change is -28.3%. Besides, the concentration at half-maximal activity (AC50) under setting [1] is 18.4 µM [falling, single point].
For `O=S(=O)(NC1CC1)c1ccc(F)c(F)c1`, under setting [1], the concentration at half-maximal activity (AC50) is 25.9 µM [falling, single point].
On to `O=C(CSc1nnc(Nc2ccccc2)s1)Nc1ccc(S(=O)(=O)N2CCOCC2)cc1`, for which the cell number change worked out at 23.4%. Also, under setting [1], the AC50 was 29.1 µM [rising, single point].
`Cn1ccsc1=NC(=O)c1ccc(S(C)(=O)=O)cc1`: the cell number change came out at 18.7%. Further, the half-maximal activity concentration (AC50) under setting [1] is 29.1 µM [rising, single point].
In the case of `Cc1ccc2cc(CN(Cc3ccccc3)Cc3nnnn3C3CCCC3)c(=O)[nH]c2c1`, the cell number change was found to be 21.8%. Moreover, under setting [2], the AC50 is 6.51 µM [rising, single point]. Moreover, under setting [1], the concentration at half-maximal activity (AC50) is 0.116 µM [falling, full curve, poor fit].
Turning to `CN1CCN(S(=O)(=O)c2cccc(C(=O)Nc3sccc3C(N)=O)c2)CC1`, the cell number change was -36%. The AC50 under setting [2] was 2.31 µM [falling, full curve, poor fit]. Moreover, the half-maximal activity concentration (AC50) under setting [1] is 0.231 µM [falling, full curve].
Take `N/C(=N\OC(=O)Nc1cccc(C(F)(F)F)c1)c1ccno1`: the cell number change is -3.74%. Also, the AC50 under setting [2] is 3.66 µM [rising, single point].
Consider `CN(Cc1ccccc1)C(=O)c1nc[nH]c1C(=O)N1CCc2ccccc2C1`, for which the cell number change amounted to 21.2%. Besides, the AC50 under setting [2] was 0.103 µM [rising, full curve, poor fit]. The AC50 under setting [1] is 0.103 µM [rising, single point].
Regarding `Cc1ccc(C)c2nc3sc(C(=O)O)cc3cc12`, the cell number change was 14.8%. Also, the AC50 under setting [1] is 0.411 µM [rising, partial curve, poor fit].
`CCN(CC(=O)NCc1ccc(Cl)cc1)C(=O)CN1C(=O)NC(C)(c2ccccc2)C1=O` (stereo not drawn): the cell number change was 11%. In addition, under setting [1], the AC50 is 0.103 µM [falling, full curve, poor fit].
In the case of `COc1ccccc1CNC(=O)c1ccc(CS(=O)Cc2cccc(Cl)c2)o1` (stereo not drawn), the cell number change turned out to be 32.5%. In addition, the AC50 under setting [2] is 10.3 µM [rising, partial curve, poor fit]. Besides, the AC50 under setting [1] was 0.326 µM [rising, full curve, poor fit].
For `O=C(COC(=O)/C=C/c1ccc(Cl)cc1)Nc1ccccc1-c1ccccc1`, the cell number change was determined as 41.3%. The half-maximal activity concentration (AC50) under setting [2] is 10.3 µM [rising, partial curve]. In addition, the AC50 under setting [1] was 16.4 µM [rising, single point].
Turning to `COc1cccc(Nc2nnc(SCc3nc4ccccc4s3)s2)c1`, the cell number change was -14.3%. Further, the half-maximal activity concentration (AC50) under setting [2] was 7.31 µM [falling, single point]. Besides, the AC50 under setting [1] was 3.66 µM [rising, full curve].
As for `O=C(c1ccc(OC2CCN(Cc3ccc(F)cc3)CC2)cc1)N1CCCC1`, the cell number change was found to be 14.4%. Under setting [1], the half-maximal activity concentration (AC50) was 0.116 µM [rising, partial curve, poor fit].
As for `O=C(Cc1ccc(Cl)cc1)NNc1c(F)c(F)cc(F)c1F`, the cell number change was 7.21%. The half-maximal activity concentration (AC50) under setting [1] is 18.4 µM [rising, single point].
`CCN(CC(=O)NC1CCS(=O)(=O)C1)S(=O)(=O)c1ccc2ccccc2c1` (stereo not drawn): the cell number change is 12.6%. Moreover, under setting [1], the half-maximal activity concentration (AC50) was 13 µM [rising, single point].
On to `CC(=O)Nc1cccc(-c2csc(Nc3ccc(Cl)cn3)n2)c1`, for which the cell number change is -27.4%. Further, under setting [2], the half-maximal activity concentration (AC50) was 0.517 µM [falling, single point].
Regarding `CC1(C)Cc2c(sc(NC(=O)COc3ccccc3)c2C#N)C(C)(C)N1`, the cell number change was -12.2%.
In the case of `COc1ccc(N(CC(=O)NCc2ccccc2C)S(=O)(=O)c2ccccc2[N+](=O)[O-])c(OC)c1`, the cell number change is -37.9%. Besides, the AC50 under setting [2] is 20.6 µM [falling, single point]. The AC50 under setting [1] was 13 µM [falling, single point].
Take `O=C(Cc1cccs1)N1CCN=C1SCc1ccc(Br)cc1`: the cell number change was 10.5%.
For the compound `COCCCn1c(C(=O)NC2CCCCC2C)cc2c(=O)n3cccc(C)c3nc21` (stereo not drawn), the AC50 under setting [1] was 18.4 µM [falling, partial curve].
Consider `Cc1cc(C)nc(SCC(=O)NNC(=O)c2cccs2)n1`, for which the cell number change amounted to 18.8%.
As for `Cc1cc(C)c2cc(CN(CCO)C(=O)Nc3ccc(Cl)cc3)c(=O)[nH]c2c1`, the cell number change was -36.4%. For the same compound, the concentration at half-maximal activity (AC50) under setting [2] was 23.1 µM [falling, single point]. Further, under setting [1], the AC50 is 0.13 µM [rising, full curve, poor fit].
With `Cc1[nH]n(-c2cccc(Cl)c2)c(=O)c1-c1ccc(Cl)cc1`, the cell number change was -14%. Besides, under setting [2], the half-maximal activity concentration (AC50) is 6.51 µM [falling, single point]. Moreover, under setting [1], the AC50 is 2.06 µM [falling, partial curve].
`CCN(CC(=O)Nc1c(F)cccc1F)C(=O)CNC(=O)C1CCCCC1`: the cell number change was -26.5%.
As for `Cc1ccc(NC(=O)c2cc3ccccc3o2)nc1`, the cell number change was 35.2%. The half-maximal activity concentration (AC50) under setting [2] is 2.31 µM [rising, full curve].
For the compound `O=C(Oc1ccc(/C=N/NC(=O)c2ccco2)cc1)c1ccccc1`, the cell number change came to 6.84%. In addition, under setting [1], the concentration at half-maximal activity (AC50) is 14.6 µM [falling, partial curve, poor fit].
Take `CCC(=O)N(Cc1cc2cc(C)c(C)cc2[nH]c1=O)C1CCCCC1`: the concentration at half-maximal activity (AC50) is 0.651 µM [rising, single point] under setting [2] and 0.116 µM [rising, single point] under setting [1].
For `c1cncc(-c2nc(-c3ccc4c(c3)OCCO4)cs2)c1`, the cell number change was -18.9%. The half-maximal activity concentration (AC50) under setting [1] is 32.6 µM [falling, single point].
On to `CC(=O)N1CCN(c2ccc(NC(=O)c3ccc(OCc4ccccc4)cc3)cc2)CC1`, for which the cell number change stood at 26.1%. Besides, under setting [2], the half-maximal activity concentration (AC50) was 5.17 µM [falling, single point]. The AC50 under setting [1] is 5.17 µM [falling, single point].
On to `Cc1nccn1CCC1CCCCN1C(=O)CCc1nnc(-c2ccsc2)o1` (stereo not drawn), for which the cell number change was -0.12%.
Consider `NS(=O)(=O)c1ccc(CCNCc2cccs2)cc1`, for which the cell number change was -52.7%. Under setting [2], the AC50 is 20.6 µM [falling, single point]. For the same compound, the half-maximal activity concentration (AC50) under setting [1] is 25.9 µM [falling, single point].
Regarding `O=C(CC(=O)NCCc1ccccc1)NCCc1ccccc1`, the cell number change stood at 8.55%. For the same compound, the concentration at half-maximal activity (AC50) under setting [1] was 0.58 µM [rising, single point].
As to `C=C(C)C(=O)Nc1cccc(C2=NOC3(C2)C[C@H](C(N)=O)N(C(=O)CC#N)C3)c1` (stereo partly drawn), the cell number change stood at 3.18%. The AC50 under setting [1] is 2.06 µM [falling, partial curve].
`O=C(Nc1cccc(NC(=O)c2cccc(Cl)c2)c1)c1cccnc1`: the cell number change was found to be 1.32%.
`Cc1onc(-c2c(F)cccc2Cl)c1C(=O)OCc1cnc(Cl)s1`: the cell number change stood at 23.9%. Besides, the AC50 under setting [2] is 0.00461 µM [rising, full curve, poor fit].
On to `COC(=O)Oc1ccc(/C=C/C(=O)OC(C)C)cc1OC(=O)OC`, for which the cell number change was -19.6%. For the same compound, the AC50 under setting [2] was 1.3 µM [rising, partial curve]. For the same compound, the AC50 under setting [1] is 2.91 µM [rising, partial curve].
For the compound `Cc1cc(C)c(NC(=O)CSc2nnc(-c3ccco3)n2N)c(C)c1`, the cell number change came to 13.8%. Also, the concentration at half-maximal activity (AC50) under setting [1] was 0.651 µM [rising, full curve].
On to `CCCN(CCC)c1nc2c(C)cccn2c(=O)c1/C=C1/SC(=S)N(Cc2ccco2)C1=O`, for which the cell number change turned out to be 167%. For the same compound, under setting [2], the AC50 is 0.58 µM [rising, partial curve, poor fit]. Moreover, the AC50 under setting [1] is 0.651 µM [rising, full curve].
Regarding `Cc1onc(-c2ccccc2)c1C(=O)NC(C)CCc1ccccc1` (stereo not drawn), the cell number change is 38.2%. Besides, the AC50 under setting [2] is 0.13 µM [rising, full curve, poor fit].
Consider `Cc1ccc(C(C(=O)NC2CCCCC2)N(Cc2ccco2)C(=O)Cc2c[nH]c3ccccc23)o1` (stereo not drawn), for which the cell number change is -53.8%. Also, under setting [2], the AC50 was 14.6 µM [falling, partial curve, poor fit]. Further, under setting [1], the AC50 was 5.17 µM [falling, single point].
In the case of `O=C1C=C(Nc2cccc3cccnc23)c2ccccc2C1=O`, the cell number change was -49.9%. For the same compound, the AC50 under setting [2] was 7.31 µM [falling, partial curve]. The AC50 under setting [1] is 29.1 µM [falling, single point].
On to `COCCCNC(=S)N(CCCO)Cc1cc2cc3c(cc2[nH]c1=O)OCCO3`, for which the cell number change was -8.45%. Moreover, the half-maximal activity concentration (AC50) under setting [1] is 29.1 µM [rising, single point].
Take `CCOC(=O)N1CCC(NC(=O)Cc2ccccc2)CC1`: the cell number change amounted to 7.27%. Besides, the AC50 under setting [1] is 1.64 µM [rising, partial curve].
On to `O=C(/C=C/c1ccccc1)NNC(=O)C1CC1`, for which the cell number change is -32%. For the same compound, the AC50 under setting [2] was 2.06 µM [falling, full curve]. Under setting [1], the concentration at half-maximal activity (AC50) is 2.59 µM [falling, full curve, poor fit].
As for `CC(/C=C1\SC(=S)N(CCC(=O)Nc2cccc(C(=O)O)c2)C1=O)=C\c1ccccc1`, the cell number change was -17.9%. The concentration at half-maximal activity (AC50) under setting [1] was 0.231 µM [rising, full curve].
With `COC(=O)c1cc(OC)c(OC)cc1NC(=S)NC(=O)c1ccco1`, the AC50 under setting [1] is 29.1 µM [falling, single point].
As to `O=C(Nc1ccc(Cl)c(Cl)c1)NC1CCS(=O)(=O)C1` (stereo not drawn), the cell number change is 9.21%.
In the case of `COc1ccc(C2C(C(C)=O)=C(O)C(=O)N2CCc2c[nH]c3ccccc23)cc1OC` (stereo not drawn), the cell number change was -17.7%. Moreover, under setting [1], the AC50 is 2.31 µM [falling, partial curve, poor fit].
With `CCOC(=O)Cc1csc(NC(=O)CCCc2ccccc2)n1`, the cell number change was -16.1%. For the same compound, the AC50 under setting [1] is 0.651 µM [rising, single point].
As for `Cc1cc(NC(=O)CSc2nnc3c(C)cc4ccccc4n23)no1`, the cell number change was -0.752%. In addition, under setting [1], the AC50 was 29.1 µM [rising, single point].
